Experiment [1] deals with GATA3 (endogenous, ILC2s) (mouse (endogenous in liver and lung ILC2s)) (UniProt P23772). Kind of experiment: affinity purification with mass spectrometry; IP of lysates of cultured liver ILC2s (1 x 10^7) and lung ILC2s (1.8 x 10^6) with anti-GATA3 antibody or IgG control, SDS-PAGE, LC-MS/MS; IP buffer 50 mM Tris-HCl pH 7.5, 150 mM NaCl, 10% glycerol, 0.1% Tween, 1 mM EDTA; hits by Mascot score, anti-GATA3/IgG control > 1.

Protein sequences, listed by entry. Tags and fused reporters are not part of them. Residues count along the entry.
UniProt P23772: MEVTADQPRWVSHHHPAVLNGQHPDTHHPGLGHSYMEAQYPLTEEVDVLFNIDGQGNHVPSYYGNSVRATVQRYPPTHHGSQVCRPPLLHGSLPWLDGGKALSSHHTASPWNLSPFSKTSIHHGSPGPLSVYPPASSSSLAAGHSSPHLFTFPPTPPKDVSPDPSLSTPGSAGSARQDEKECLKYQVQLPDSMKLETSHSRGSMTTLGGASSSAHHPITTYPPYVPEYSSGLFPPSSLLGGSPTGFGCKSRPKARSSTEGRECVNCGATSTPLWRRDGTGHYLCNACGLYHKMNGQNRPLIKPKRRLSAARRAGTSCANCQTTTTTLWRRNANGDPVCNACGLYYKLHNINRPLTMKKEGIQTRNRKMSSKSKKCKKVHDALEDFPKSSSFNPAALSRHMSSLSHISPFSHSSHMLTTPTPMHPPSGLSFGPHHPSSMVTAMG
UniProt P14211, residues 18-416: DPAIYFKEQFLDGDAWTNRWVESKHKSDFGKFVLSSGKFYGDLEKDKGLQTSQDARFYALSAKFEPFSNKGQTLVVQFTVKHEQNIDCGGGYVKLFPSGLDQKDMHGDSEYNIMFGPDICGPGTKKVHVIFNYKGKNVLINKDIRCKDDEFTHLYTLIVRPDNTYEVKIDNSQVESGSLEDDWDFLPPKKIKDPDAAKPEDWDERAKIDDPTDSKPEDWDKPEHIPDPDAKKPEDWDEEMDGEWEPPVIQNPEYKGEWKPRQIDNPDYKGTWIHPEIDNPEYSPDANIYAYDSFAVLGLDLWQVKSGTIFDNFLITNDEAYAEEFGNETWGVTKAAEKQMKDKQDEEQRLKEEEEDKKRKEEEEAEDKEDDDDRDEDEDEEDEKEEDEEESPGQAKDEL

The target is the same in experiment [2]. The description is as above. This is another data set of the same source.

Where two headings read alike, the source gives them in different places. These are yes or no findings as the source states them, for the method shown. Binding seen in cells or lysates may run through a third protein. These calls come from enrichment with a bait or labelling near it, and not all partners need be listed.

In the case of “Calr (endogenous, liver ILC2s) (from UniProt P14211 18-416)”, in experiment [1], the binding result is listed as “binds”.

B1: JunB (endogenous, ILC2s) (protein, UniProt P09450 1-344)
chain: MCTKMEQPFYHDDSYAAAGYGRSPGSLSLHDYKLLKPTLALNLADPYRGLKGPGARGPGPEGSGAGSYFSGQGSDTGASLKLASTELERLIVPNSNGVITTTPTPPGQYFYPRGGGSGGGTGGGVTEEQEGFADGFVKALDDLHKMNHVTPPNVSLGASGGPQAGPGGVYAGPEPPPVYTNLSSYSPASAPSGGSGTAVGTGSSYPTATISYLPHAPPFAGGHPAQLGLSRGASAFKEEPQTVPEARSRDATPPVSPINMEDQERIKVERKRLRNRLAATKCRKRKLERIARLEDKVKTLKAENAGLSSAAGLLREQVAQLKQKVMTHVSNGCQLLLGVKGHAF
For the molecule B1, the binding entry in experiment [2] is reported as “binds”.

B2: Pa2g4 (endogenous, liver ILC2s) (protein, UniProt P50580 1-394)
chain: MSGEDEQQEQTIAEDLVVTKYKMGGDIANRVLRSLVEASSSGVSVLSLCEKGDAMIMEETGKIFKKEKEMKKGIAFPTSISVNNCVCHFSPLKSDQDYILKEGDLVKIDLGVHVDGFIANVAHTFVIGVAQGTQVTGRKADVIKAAHLCAEAALRLVKPGNQNTQVTEAWNKVAHSFNCTPIEGMLSHQLKQHVIDGEKTIIQNPTDQQKKDHEKAEFEVHEVYAVDVLVSSGEGKAKDAGQRTTIYKRDPSKQYGLKMKTSRAFFSEVERRFDAMPFTLRAFEDEKKARMGVVECAKHELLQPFNVLYEKEGEFVAQFKFTVLLMPNGPMRITSGPFEPDLYKSEMEVQDAELKALLQSSASRKTQKKKKKKASKTVENATSGETLEENGAGD
As to B2, the binding entry in experiment [2] is reported as “binds”.

B3: JunD (endogenous, ILC2s) (protein, UniProt P15066 1-341)
chain: METPFYGEEALSGLAAGASSVAGATGAPGGGGFAPPGRAFPGAPPTSSMLKKDALTLSLAEQGAAGLKPGSATAPSALRPDGAPDGLLASPDLGLLKLASPELERLIIQSNGLVTTTPTSTQFLYPKVAASEEQEFAEGFVKALEDLHKQSQLGAATAATSGAPAPPAPADLAATPGATETPVYANLSSFAGGAGPPGGAATVAFAAEPVPFPPPPGALGPPPPPHPPRLAALKDEPQTVPDVPSFGDSPPLSPIDMDTQERIKAERKRLRNRIAASKCRKRKLERISRLEEKVKTLKSQNTELASTASLLREQVAQLKQKVLSHVNSGCQLLPQHQVPAY
As for B3, the binding entry in experiment [2] was “binds”.

Values taken from publication PMC9478157.
